Experimental data taken from the supplement of paper PMC7666118.
The list shows a part of the results.

Protein sequences, listed by entry. Tags and fused reporters are not part of them. Lines headed by an entry give the natural chain unless they say otherwise; changes in a name come on top.
UniProt Q9Y4X5: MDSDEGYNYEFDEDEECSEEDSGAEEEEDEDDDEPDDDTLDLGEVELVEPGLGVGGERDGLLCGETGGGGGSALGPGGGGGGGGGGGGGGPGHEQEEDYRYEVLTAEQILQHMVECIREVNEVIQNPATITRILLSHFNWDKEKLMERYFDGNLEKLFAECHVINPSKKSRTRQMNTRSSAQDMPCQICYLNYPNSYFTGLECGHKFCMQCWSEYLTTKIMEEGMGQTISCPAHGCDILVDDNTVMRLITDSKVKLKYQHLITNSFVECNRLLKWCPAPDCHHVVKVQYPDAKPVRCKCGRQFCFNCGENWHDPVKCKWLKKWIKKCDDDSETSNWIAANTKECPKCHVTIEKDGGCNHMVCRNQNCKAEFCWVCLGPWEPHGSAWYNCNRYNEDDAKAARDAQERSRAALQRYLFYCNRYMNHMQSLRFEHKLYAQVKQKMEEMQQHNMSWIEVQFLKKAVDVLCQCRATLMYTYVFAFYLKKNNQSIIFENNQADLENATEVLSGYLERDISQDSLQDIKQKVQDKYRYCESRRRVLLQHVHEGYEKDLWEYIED
UniProt Q8N2F6: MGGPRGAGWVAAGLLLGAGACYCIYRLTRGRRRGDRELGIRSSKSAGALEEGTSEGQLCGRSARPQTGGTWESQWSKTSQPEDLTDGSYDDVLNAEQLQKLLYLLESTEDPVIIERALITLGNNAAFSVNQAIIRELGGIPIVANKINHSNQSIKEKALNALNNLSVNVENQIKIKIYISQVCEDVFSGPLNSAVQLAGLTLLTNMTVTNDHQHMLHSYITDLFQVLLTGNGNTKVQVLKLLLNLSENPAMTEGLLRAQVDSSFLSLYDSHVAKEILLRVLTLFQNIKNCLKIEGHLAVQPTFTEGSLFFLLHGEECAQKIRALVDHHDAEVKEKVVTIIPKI
UniProt Q10567: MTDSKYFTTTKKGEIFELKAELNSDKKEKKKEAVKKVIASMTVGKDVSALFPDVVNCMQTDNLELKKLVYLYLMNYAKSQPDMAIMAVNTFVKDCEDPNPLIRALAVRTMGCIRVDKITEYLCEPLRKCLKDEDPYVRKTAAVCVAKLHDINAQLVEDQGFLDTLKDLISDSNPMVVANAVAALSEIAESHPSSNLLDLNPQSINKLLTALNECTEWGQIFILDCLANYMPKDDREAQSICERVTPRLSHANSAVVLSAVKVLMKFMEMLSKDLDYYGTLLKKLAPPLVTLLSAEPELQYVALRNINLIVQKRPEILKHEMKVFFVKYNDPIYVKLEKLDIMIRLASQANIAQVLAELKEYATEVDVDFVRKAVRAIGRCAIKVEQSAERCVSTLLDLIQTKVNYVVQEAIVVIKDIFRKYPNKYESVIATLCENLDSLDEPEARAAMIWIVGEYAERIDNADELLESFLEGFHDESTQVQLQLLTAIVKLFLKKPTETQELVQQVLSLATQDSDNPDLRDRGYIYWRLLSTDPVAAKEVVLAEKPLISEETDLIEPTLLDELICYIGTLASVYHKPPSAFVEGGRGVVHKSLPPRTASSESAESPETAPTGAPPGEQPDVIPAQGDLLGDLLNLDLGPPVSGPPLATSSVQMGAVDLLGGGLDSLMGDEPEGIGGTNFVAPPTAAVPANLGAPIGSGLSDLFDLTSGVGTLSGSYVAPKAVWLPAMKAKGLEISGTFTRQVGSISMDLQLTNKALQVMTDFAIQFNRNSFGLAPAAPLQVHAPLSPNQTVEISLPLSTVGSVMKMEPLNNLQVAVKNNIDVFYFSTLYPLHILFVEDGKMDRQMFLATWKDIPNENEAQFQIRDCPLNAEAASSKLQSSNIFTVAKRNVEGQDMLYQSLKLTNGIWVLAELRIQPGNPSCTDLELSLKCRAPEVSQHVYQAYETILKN
UniProt Q9H8Y5: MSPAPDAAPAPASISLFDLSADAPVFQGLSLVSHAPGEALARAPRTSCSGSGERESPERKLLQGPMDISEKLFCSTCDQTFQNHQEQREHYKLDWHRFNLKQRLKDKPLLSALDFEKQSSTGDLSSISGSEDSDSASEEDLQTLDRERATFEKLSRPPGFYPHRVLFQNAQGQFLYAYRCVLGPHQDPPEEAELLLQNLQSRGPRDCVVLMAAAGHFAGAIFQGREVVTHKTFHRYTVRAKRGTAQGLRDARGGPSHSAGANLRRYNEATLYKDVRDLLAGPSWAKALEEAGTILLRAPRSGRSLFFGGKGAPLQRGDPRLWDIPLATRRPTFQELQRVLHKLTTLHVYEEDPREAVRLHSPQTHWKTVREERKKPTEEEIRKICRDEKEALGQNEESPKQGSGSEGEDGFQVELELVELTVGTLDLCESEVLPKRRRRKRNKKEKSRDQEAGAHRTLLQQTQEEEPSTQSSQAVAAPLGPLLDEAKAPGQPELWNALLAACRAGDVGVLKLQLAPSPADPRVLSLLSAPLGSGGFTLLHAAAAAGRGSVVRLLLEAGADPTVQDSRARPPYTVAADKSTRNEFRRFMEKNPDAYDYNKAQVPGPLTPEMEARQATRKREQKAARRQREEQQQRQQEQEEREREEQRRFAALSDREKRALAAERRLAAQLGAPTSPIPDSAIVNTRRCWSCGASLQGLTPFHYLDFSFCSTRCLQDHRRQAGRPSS
UniProt P36404: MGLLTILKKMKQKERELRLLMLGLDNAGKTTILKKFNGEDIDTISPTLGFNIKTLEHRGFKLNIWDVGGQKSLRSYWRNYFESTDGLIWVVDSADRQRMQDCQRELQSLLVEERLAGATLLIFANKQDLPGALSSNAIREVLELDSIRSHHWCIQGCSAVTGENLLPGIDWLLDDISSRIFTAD
UniProt Q9NT62, whole entry: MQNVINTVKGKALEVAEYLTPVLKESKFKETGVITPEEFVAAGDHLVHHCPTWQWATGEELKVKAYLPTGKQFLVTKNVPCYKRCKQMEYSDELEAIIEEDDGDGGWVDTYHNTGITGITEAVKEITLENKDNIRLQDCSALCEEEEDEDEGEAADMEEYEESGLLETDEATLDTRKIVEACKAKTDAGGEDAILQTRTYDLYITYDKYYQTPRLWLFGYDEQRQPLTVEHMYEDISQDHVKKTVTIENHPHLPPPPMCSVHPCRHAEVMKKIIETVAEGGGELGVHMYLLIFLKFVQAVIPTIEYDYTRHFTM
UniProt Q9NXU5: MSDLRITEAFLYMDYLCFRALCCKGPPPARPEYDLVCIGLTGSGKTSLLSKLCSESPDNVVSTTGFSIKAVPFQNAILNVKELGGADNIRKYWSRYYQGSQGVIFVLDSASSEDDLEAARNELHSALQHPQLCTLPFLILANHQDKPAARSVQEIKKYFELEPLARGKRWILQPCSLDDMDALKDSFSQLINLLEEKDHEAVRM
UniProt Q96DT6: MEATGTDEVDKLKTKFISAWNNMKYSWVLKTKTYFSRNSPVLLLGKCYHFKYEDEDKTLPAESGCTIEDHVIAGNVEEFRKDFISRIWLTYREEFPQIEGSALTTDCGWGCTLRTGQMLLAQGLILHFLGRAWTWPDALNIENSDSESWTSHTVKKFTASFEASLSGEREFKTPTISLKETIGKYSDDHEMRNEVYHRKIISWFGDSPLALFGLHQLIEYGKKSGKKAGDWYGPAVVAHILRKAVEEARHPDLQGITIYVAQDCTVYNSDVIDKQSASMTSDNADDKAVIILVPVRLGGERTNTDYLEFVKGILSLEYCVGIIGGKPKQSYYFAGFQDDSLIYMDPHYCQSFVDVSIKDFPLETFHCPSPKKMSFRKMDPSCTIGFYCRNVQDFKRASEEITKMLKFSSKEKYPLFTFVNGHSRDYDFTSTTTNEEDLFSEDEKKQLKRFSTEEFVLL
UniProt P18846: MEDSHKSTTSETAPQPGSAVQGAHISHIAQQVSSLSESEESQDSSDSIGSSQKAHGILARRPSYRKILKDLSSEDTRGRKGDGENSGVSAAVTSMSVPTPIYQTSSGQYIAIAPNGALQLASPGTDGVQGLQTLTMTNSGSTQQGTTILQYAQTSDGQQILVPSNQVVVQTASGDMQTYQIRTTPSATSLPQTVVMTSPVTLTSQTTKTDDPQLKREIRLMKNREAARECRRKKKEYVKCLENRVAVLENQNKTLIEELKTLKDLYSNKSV
UniProt Q7L266: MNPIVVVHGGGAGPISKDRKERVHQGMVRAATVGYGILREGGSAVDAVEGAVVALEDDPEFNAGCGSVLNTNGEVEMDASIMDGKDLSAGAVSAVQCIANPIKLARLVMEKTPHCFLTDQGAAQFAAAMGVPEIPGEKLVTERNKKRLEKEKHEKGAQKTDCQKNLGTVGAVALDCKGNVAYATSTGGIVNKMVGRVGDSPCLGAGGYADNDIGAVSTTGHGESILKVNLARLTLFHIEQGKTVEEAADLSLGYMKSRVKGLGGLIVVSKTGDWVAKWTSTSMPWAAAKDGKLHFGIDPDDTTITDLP
UniProt Q7Z3C6: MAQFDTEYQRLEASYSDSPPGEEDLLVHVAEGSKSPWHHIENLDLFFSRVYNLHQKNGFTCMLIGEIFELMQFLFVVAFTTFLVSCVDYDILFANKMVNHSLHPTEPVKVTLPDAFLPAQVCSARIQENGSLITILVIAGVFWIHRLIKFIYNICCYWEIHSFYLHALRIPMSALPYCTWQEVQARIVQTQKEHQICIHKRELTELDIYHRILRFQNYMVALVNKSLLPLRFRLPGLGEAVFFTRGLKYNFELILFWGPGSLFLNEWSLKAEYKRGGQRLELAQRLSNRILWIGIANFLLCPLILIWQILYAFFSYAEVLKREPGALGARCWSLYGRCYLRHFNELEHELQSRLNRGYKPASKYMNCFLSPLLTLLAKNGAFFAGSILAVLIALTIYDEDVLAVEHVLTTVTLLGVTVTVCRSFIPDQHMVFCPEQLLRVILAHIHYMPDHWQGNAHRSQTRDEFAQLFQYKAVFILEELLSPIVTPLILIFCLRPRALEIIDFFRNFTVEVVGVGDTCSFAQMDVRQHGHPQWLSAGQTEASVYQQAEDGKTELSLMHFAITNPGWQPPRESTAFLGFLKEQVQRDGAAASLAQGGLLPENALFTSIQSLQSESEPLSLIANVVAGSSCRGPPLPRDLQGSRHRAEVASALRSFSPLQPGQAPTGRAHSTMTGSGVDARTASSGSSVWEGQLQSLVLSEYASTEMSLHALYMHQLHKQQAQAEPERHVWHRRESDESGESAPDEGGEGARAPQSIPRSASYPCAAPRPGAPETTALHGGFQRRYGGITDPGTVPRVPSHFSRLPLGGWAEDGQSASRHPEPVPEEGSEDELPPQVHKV
UniProt Q7Z6I6: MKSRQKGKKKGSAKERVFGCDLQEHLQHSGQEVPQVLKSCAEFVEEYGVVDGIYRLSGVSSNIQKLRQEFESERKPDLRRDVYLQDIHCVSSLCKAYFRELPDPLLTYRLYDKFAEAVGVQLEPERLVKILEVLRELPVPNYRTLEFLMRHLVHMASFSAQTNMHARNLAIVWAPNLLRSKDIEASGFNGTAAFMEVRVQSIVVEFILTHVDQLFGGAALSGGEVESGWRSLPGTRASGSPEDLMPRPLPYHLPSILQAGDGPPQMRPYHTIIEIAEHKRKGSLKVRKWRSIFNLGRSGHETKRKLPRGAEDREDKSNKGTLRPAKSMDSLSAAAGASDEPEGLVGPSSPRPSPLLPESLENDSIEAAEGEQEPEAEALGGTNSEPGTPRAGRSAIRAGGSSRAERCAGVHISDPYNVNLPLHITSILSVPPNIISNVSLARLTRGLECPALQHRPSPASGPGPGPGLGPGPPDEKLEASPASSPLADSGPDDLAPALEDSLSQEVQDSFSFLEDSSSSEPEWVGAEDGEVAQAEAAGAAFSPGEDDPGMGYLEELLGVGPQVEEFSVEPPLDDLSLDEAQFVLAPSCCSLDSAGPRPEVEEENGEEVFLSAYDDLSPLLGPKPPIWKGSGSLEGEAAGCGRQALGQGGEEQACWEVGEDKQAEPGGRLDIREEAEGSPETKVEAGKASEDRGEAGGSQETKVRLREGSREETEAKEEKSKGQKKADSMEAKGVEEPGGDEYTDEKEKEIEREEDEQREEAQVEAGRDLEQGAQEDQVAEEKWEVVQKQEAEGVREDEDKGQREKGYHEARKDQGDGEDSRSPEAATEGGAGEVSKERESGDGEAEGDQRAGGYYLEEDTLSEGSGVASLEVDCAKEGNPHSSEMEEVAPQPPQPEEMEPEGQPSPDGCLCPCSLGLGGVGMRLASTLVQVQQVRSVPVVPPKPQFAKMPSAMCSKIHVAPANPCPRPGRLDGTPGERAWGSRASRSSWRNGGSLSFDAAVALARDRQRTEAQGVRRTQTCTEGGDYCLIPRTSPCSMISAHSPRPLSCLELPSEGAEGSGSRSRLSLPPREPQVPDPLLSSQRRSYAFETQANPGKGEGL
UniProt Q9H0F7: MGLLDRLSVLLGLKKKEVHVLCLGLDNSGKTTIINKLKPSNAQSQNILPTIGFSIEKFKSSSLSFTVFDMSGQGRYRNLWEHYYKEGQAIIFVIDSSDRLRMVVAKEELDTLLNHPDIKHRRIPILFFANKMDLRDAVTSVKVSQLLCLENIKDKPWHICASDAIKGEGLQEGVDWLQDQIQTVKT

Compound: COc1ccc(Cn2ccc3cc(C)c(C(=O)NO)cc32)cc1
Test: dose-dependent thermal stabilisation call (2D-TPP, DLPTP, 10% FDR) (binary (1 = stabilised)); higher = stabilised by the compound
Conditions: system: HL-60 intact cells; concentration range 0.04-10 µM
Experimental: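 2D thermal proteome profiling in intact HL-60 cells treated with BRD-3811 (0, 0.04, 0.29, 2, 10 uM) for 90 min at 37 C, then heated 3 min at one of 12 temperatures (42-63.9 C). Soluble protein was quantified by TMT10 MS. The value is the DLPTP call of the paper: dose-dependent thermal stabilisation over all temperatures at 10% FDR (F-test of a dose-response against a flat model); one experiment, one call per tested protein.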

Target | dose-dependent thermal stabilisation call
ARIH1 (UniProt Q9Y4X5) | inactive: 0
ARMC10 (UniProt Q8N2F6) | inactive: 0
ATN1 (UniProt P54259) | inactive: 0
APIP (UniProt Q96GX9) | inactive: 0
ANAPC4 (UniProt Q9UJX5) | inactive: 0
ALOX5AP (UniProt P20292) | active: 1
AKAP1 (UniProt Q92667) | inactive: 0
ATL2 (UniProt Q8NHH9) | inactive: 0
ARL6IP1 (UniProt Q15041) | inactive: 0
ANLN (UniProt Q9NQW6) | inactive: 0
AP1B1 (UniProt Q10567) | inactive: 0
ALDH5A1 (UniProt P51649) | inactive: 0
ANKZF1 (UniProt Q9H8Y5) | inactive: 0
ARL2 (UniProt P36404) | inactive: 0
ALDH3A2 (UniProt P51648) | active: 1
ANTXR2 (UniProt P58335) | inactive: 0
ARFIP2 (UniProt P53365) | inactive: 0
ASAP1 (UniProt Q9ULH1) | inactive: 0

Target | dose-dependent thermal stabilisation call
ANXA2 (UniProt P07355) | inactive: 0
ATG3 (UniProt Q9NT62) | inactive: 0
ARL15 (UniProt Q9NXU5) | inactive: 0
ASPH (UniProt Q12797) | inactive: 0
ATG4C (UniProt Q96DT6) | inactive: 0
AK3L1 | inactive: 0
APP (UniProt P05067) | inactive: 0
APOOL (UniProt Q6UXV4) | inactive: 0
ALDH3B1 (UniProt P43353) | inactive: 0
ATF1 (UniProt P18846) | inactive: 0
ADSS (UniProt P30520) | active: 1
ASRGL1 (UniProt Q7L266) | inactive: 0
ATG9A (UniProt Q7Z3C6) | inactive: 0
ARFGAP1 (UniProt Q8N6T3) | inactive: 0
ARFGAP2 (UniProt Q8N6H7) | inactive: 0
ANKRD13A (UniProt Q8IZ07) | inactive: 0
ARHGAP30 (UniProt Q7Z6I6) | inactive: 0
ARL6 (UniProt Q9H0F7) | inactive: 0

Random excerpt: two entries already listed
Target | dose-dependent thermal stabilisation call
ALDH3B1 (UniProt P43353) | inactive: 0
ATG9A (UniProt Q7Z3C6) | inactive: 0
